{"source": "PubChem BioAssay AID901", "about": "(National Center for Advancing Translational Sciences (NCATS), 2007)", "note": "The list shows a part of the results. Shown are side measurements of this screen, not its main read-out; they come without a call. The list favours compounds with an active or inconclusive main result. Words in brackets tell the shape of the fitted curve; partial curves, single points and poor fits give uncertain potencies."}
{"assay": "qHTS Assay for Identifying the Cell-Membrane Permeable IMPase Inhibitors", "conditions": "CHO-M1 cells, IP1 accumulation, HTRF TR-FRET ratio; measured here: donor channel 620 nm AC50"}
{"smiles": "CN1CCc2cccc3c2[C@@H]1Cc1ccc(O)c(O)c1-3", "AC50": "0.0794 µM [falling, full curve, poor fit]"}
{"smiles": "COc1cccc(C2(CSc3nnc(-c4cc(OC)c(OC)c(OC)c4)o3)OCCO2)c1", "AC50": "0.794 µM [falling, full curve]"}
{"smiles": "CCc1ccccc1NC(=O)c1cnc2scc(C)n2c1=O", "AC50": "5.62 µM [rising, single point]"}
{"smiles": "CCOC(=O)/C(C#N)=C1/C=C(C)NC(c2ccccc2O)=N1", "AC50": "31.6 µM [rising, single point]"}
{"smiles": "COC(=O)CSc1nc2ccccc2c(=O)n1C", "AC50": "0.251 µM [falling, full curve, poor fit]"}
{"smiles": "CCCCOC(=O)CNc1n[nH]c(=S)[nH]c1=O", "AC50": "12.6 µM [rising, partial curve]"}
{"smiles": "CC(C)(C)NC(=O)C(=O)N/N=C/c1cccs1", "AC50": "5.01 µM [falling, single point]"}
{"smiles": "O=C(NCc1ccccc1)c1cc(=O)nc2sc(-c3ccccc3)nn12", "AC50": "5.01 µM [rising, partial curve]"}
{"smiles": "O=C(CCCNS(=O)(=O)c1cccc2nsnc12)NC1CCCCC1", "AC50": "3.16 µM [falling, single point]"}
{"smiles": "COc1ccc(N2CCN(Cc3cc4c(cc3O)CCC4)CC2)cc1", "AC50": "31.6 µM [falling, single point]"}
{"smiles": "COc1ccc(C(=O)NNC(=S)NC(=O)c2cc(-c3ccccc3)nc3ccccc23)cc1", "AC50": "2.51 µM [falling, partial curve, poor fit]"}
{"smiles": "OC(CN1CCC(Cc2ccc(F)cc2)CC1)c1ccc(Cl)cc1", "note": "(configuration not stated)", "AC50": "1.58 µM [falling, full curve]"}
{"smiles": "Cc1cccc(N(C(=O)c2ccc(CN3CCOCC3)o2)C(C(=O)NC(C)(C)C)c2ccc(F)cc2)c1", "note": "(configuration not stated)", "AC50": "0.126 µM [rising, single point]"}
{"smiles": "COc1ccc(CCn2nnnc2C(c2ccccc2)N2CCN(C)CC2)cc1OC", "note": "(configuration not stated)", "AC50": "0.126 µM [falling, full curve, poor fit]"}
{"smiles": "Cc1ccc2[nH]c3c(=O)n(CCc4cnc[nH]4)cnc3c2c1", "AC50": "0.398 µM [falling, partial curve, poor fit]"}
{"smiles": "COc1ccc(C(=O)Nn2c(C3CCC3)nc3ccccc3c2=O)c(OC)c1", "AC50": "0.631 µM [rising, single point]"}
{"smiles": "CCC1CCc2c(sc(NC(=O)C3c4ccccc4Oc4ccccc43)c2C#N)C1", "note": "(configuration not stated)", "AC50": "0.0891 µM [falling, full curve, poor fit]"}
{"smiles": "COC(=O)[C@H](CC(C)C)NC(=O)N1CCN(c2cccc(C(F)(F)F)c2)CC1", "AC50": "0.1 µM [falling, single point]"}
{"smiles": "CCCOc1ccccc1C1CC(=O)Nc2cc3c(cc21)OCCO3", "note": "(configuration not stated)", "AC50": "25.1 µM [falling, single point]"}
{"smiles": "CC(=O)Nc1nonc1-c1nc2ccccc2n1Cc1ccccc1", "AC50": "0.0501 µM [falling, full curve, poor fit]"}
{"smiles": "O=C(CCC(=O)N(c1ccc(F)cc1)C(C(=O)NC1CCCC1)c1ccncc1)Nc1cccnc1", "note": "(configuration not stated)", "AC50": "5.01 µM [rising, single point]"}
{"smiles": "CNC(=O)CSc1nnc(-c2ccco2)n1-c1ccc(C)cc1", "AC50": "31.6 µM [falling, single point]"}
{"smiles": "O=C(CC(NC(=O)c1ccccc1Cl)c1ccccc1)Nc1ccc2c(c1)OCO2", "note": "(configuration not stated)", "AC50": "0.01 µM [falling, full curve, poor fit]"}
{"smiles": "O=C(CCCc1nc2ccccc2s1)N1CCN(S(=O)(=O)c2cccs2)CC1", "AC50": "0.126 µM [rising, full curve, poor fit]"}
{"smiles": "C/C(O)=C\\c1nc(=O)c2c(C)cc(C)nc2n1-c1ccccc1", "AC50": "6.31 µM [rising, full curve]"}
{"smiles": "O=C(CSC1=Nc2ccccc2C2=NC(CCC(=O)NC3CCCCC3)C(=O)N12)Nc1cccc(Cl)c1", "note": "(configuration not stated)", "AC50": "35.5 µM [rising, single point]"}
{"smiles": "CCCn1cnc2cc(NCc3cccc(OC)c3O)ccc21", "AC50": "20 µM [falling, single point]"}
{"smiles": "COC(=O)c1c(-c2ccc(C)cc2)csc1N", "AC50": "0.0355 µM [rising, full curve, poor fit]"}
{"smiles": "O=C(Nc1ccc(N2CCOCC2)cc1)c1ccncc1", "AC50": "7.94 µM [falling, partial curve]"}
{"smiles": "O=c1[nH]c2ccsc2c(=O)n1-c1ccc(F)cc1", "AC50": "0.02 µM [falling, full curve, poor fit]"}
{"smiles": "CCn1c(SCc2nc3sc(C(=O)O)c(C)c3c(=O)[nH]2)nc2ccccc21", "AC50": "25.1 µM [falling, single point]"}
{"smiles": "O=C(Oc1ccccc1/C=C\\C(=O)c1cc2ccccc2o1)c1cccc(F)c1", "AC50": "17.8 µM [rising, single point]"}
{"smiles": "COc1cccc(N2CC(C(=O)Nc3c(C)cccc3C)CC2=O)c1", "note": "(configuration not stated)", "AC50": "0.00794 µM [falling, full curve, poor fit]"}
{"smiles": "Cc1nnsc1C(=O)Nc1cc(Cl)ccc1Cl", "AC50": "12.6 µM [falling, single point]"}
{"smiles": "CC(=O)C1=C(C)NC(SCC(=O)c2ccccc2)=C(C#N)C1CC(C)C", "note": "(configuration not stated)", "AC50": "10 µM [rising, partial curve]"}
{"smiles": "CCc1ccccc1NC(=O)c1cc2ncc(Br)cn2n1", "AC50": "31.6 µM [rising, single point]"}
{"smiles": "COCCCNC(=O)C1CCN(c2ncccn2)CC1", "AC50": "3.98 µM [falling, partial curve, poor fit]"}
{"smiles": "CC(=O)c1nc(N2C(=O)CC(Cc3cc(C)cc(C)c3)C2=O)sc1C", "note": "(configuration not stated)", "AC50": "17.8 µM [rising, partial curve]"}
{"smiles": "CC(C)COC(=O)CNc1n[nH]c(=S)[nH]c1=O", "AC50": "12.6 µM [rising, single point]"}
{"smiles": "COc1cccc(C(=O)N/N=C2/SCC(=O)N2CCc2ccc(OC)c(OC)c2)c1", "AC50": "35.5 µM [falling, single point]"}
{"smiles": "CC(C)c1cc(C(=O)Nc2ccc3c(c2)OCO3)no1", "AC50": "35.5 µM [falling, single point]"}
{"smiles": "COc1ccccc1-n1nnnc1SCC(=O)NC1CCCC1", "AC50": "5.01 µM [rising, partial curve]"}
{"smiles": "COc1cc(C(=O)Nc2ccc(NC(=O)C(C)C)nc2)cc(OC)c1OC", "AC50": "6.31 µM [falling, partial curve]"}
{"smiles": "COc1cc(C2C3=C(CCCC3=O)Nc3[nH]n(-c4ccccc4)c(=O)c32)ccc1O", "note": "(configuration not stated)", "AC50": "10 µM [falling, partial curve]"}
{"smiles": "Cc1ccc(C(=O)N/N=C2\\CCc3ccccc32)c(C)c1", "AC50": "35.5 µM [falling, single point]"}
{"smiles": "COc1ccc2oc(=O)c(C(=O)NCc3ccc4c(c3)OCO4)cc2c1", "AC50": "0.2 µM [falling, full curve]"}
{"smiles": "O=S(=O)(O)c1nnc2sc3ccccc3n12", "AC50": "3.16 µM [falling, single point]"}
{"smiles": "COc1ccc(NC(=O)Cn2nnc3sc4c(c3c2=O)CCC(C)C4)c(OC)c1", "note": "(configuration not stated)", "AC50": "0.00447 µM [rising, full curve]"}
{"smiles": "CCN(CC)CCN1C(=O)C(=O)/C(=C(/O)c2ccc(OC)cc2)C1c1ccco1", "note": "(configuration not stated)", "AC50": "1 µM [rising, partial curve, poor fit]"}
{"smiles": "CCN(CC)C(=O)c1ccc2c(c1[N+](=O)[O-])C(=O)c1ccccc1C2=O", "AC50": "3.55 µM [rising, single point]"}
{"smiles": "Cc1occc1C(=O)NC1CCCCCC1", "AC50": "0.00316 µM [rising, full curve, poor fit]"}
{"smiles": "COc1cccc(Nc2nnc(SCC(=O)N3CC(C)OC(C)C3)s2)c1", "note": "(configuration not stated)", "AC50": "11.2 µM [falling, partial curve, poor fit]"}
{"smiles": "Cc1cc(Oc2ccc(C#N)cc2)nc(NCc2ccccc2)n1", "AC50": "0.02 µM [rising, full curve, poor fit]"}
{"smiles": "Cc1ccc(NC(=O)CSc2nnc(CN3CCOCC3)n2-c2ccccc2)cc1", "AC50": "6.31 µM [falling, single point]"}
{"smiles": "CC(C)Cn1c(NCCN(C)C)nc2c1c(=O)[nH]c(=O)n2C", "AC50": "5.01 µM [falling, partial curve]"}
{"smiles": "CC(C)CCNC(=O)C1CCN(c2nnc(-n3cccc3)s2)CC1", "AC50": "10 µM [falling, partial curve]"}
{"smiles": "Cc1cc(N2CCN(c3ccccc3)CC2)nc(-n2nc(C)cc2C)n1", "AC50": "31.6 µM [falling, single point]"}
{"smiles": "COc1ccc(NC(=O)CSc2nc3c(cc2C#N)CN(C)CC3)cc1", "AC50": "0.2 µM [falling, partial curve]"}
{"smiles": "Cc1ccccc1CSc1nnc(-c2cccnc2)n1N", "AC50": "20 µM [falling, single point]"}
{"smiles": "CCC(=O)N1CCc2cc(S(=O)(=O)NC(Cc3ccccc3)C(=O)NC3CCCC3)ccc21", "note": "(configuration not stated)", "AC50": "1.26 µM [rising, full curve]"}
{"smiles": "O=C(Nc1ccc(-c2nc3ccccc3[nH]2)cc1)C1CCCO1", "note": "(configuration not stated)", "AC50": "0.00501 µM [falling, full curve, poor fit]"}
{"smiles": "COc1ccc(C(=S)Nc2ccc(N(C)C)cc2)cc1", "AC50": "12.6 µM [falling, partial curve, poor fit]"}
{"smiles": "O=C(c1cccc(Br)c1)c1cn(-c2ccccc2)nc1C(=O)c1ccccc1", "AC50": "1.58 µM [falling, partial curve]"}
{"smiles": "CSc1nc(-c2ccccc2)nc(N2CCCC2)c1C(C)=O", "AC50": "2.51 µM [falling, partial curve]"}
{"smiles": "CC(C)c1ccc(NC(=O)c2cnn3c(C(F)F)cc(-c4ccccc4)nc23)cc1", "AC50": "0.01 µM [falling, full curve, poor fit]"}
{"smiles": "O=C(CCC(=O)c1ccc(F)cc1)Nc1cccnc1", "AC50": "0.2 µM [falling, full curve]"}
{"smiles": "COc1cc2nc(=S)n3[nH]c(CCn4nc(C)cc4C)nc3c2cc1OC", "AC50": "3.16 µM [rising, full curve]"}
